Measurements from PubChem BioAssay AID1439 (NMMLSC, 2008).
The whole screen tested about 220,000 compounds, of which about 770 (0.35%) were called active. Inconclusive results, whose numbers are uncertain, are shown with a selection of clear calls. No stated cut-off is given here; in the data, active means binding response below about 49% or above about 150%; inconclusive means no clear call, values can overlap the other calls; inactive means in between.

Amino acid sequences for entries named in this document (tags omitted).
UniProt P09471, whole entry, looked up: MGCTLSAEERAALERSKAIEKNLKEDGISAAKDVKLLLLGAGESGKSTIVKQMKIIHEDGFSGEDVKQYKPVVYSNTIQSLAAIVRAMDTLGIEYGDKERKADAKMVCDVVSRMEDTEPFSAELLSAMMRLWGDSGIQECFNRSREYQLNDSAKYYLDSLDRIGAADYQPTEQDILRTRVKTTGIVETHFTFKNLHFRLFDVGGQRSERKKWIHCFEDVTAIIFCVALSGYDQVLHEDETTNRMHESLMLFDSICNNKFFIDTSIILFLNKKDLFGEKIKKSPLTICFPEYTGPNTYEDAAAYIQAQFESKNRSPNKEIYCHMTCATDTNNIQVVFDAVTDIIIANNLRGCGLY

Target: Guanine nucleotide-binding protein G(o) subunit alpha (Homo sapiens) (UniProt P09471)
Test: RGS7-Galphao binding modulators, primary screen, biochemical, multiplexed bead flow cytometry (AID 1439);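 further: fluorescent Galphao held in activated GDP-AlF4 state binding bead-coupled RGS7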
Conditions: at 10 µM, actives lie on both sides

Row | Structure (SMILES) | binding response (% of control)
1 | COc1ccccc1S(=O)(=O)CC(O)COc1ccc(C#N)cc1 (configuration not stated) | inactive: 101%
2 | O=C(c1ccccc1)N1CCN(CC(O)Cn2ccc3ccccc32)CC1 (configuration not stated) | inconclusive: 93.3%
3 | CCOC(=O)C1C(=O)C=C(c2ccc(C)cc2)CC1c1ccccc1 (configuration not stated) | inconclusive: 115%
4 | COC(=O)c1ccc(C2c3c(oc4ccc(Cl)cc4c3=O)C(=O)N2CCN2CCOCC2)cc1 (configuration not stated) | inconclusive: 97.2%
5 | CC(=C/c1ccco1)/C=N/NC(=O)c1ccncc1 | inconclusive: 89.9%
6 | COc1ccc(-n2ccnc2)cc1 | inconclusive: 100%
7 | C#CCOC(=O)C[N+](C)(C)CC=C | inconclusive: 118%
8 | O=C(O)COc1ccccc1/C=N/NC(=O)c1cc2ccccc2cc1O | inconclusive: 94.7%
9 | CC(C)CC(=O)Nc1cccc(C(C)O)c1 (configuration not stated) | active: 203% [activator]
10 | O=C(N/N=C/c1ccc(N2CCOCC2)cc1)c1ccccn1 | inconclusive: 77.7%
11 | CNS(=O)(=O)c1ccc(N2CCCC2)c([N+](=O)[O-])c1 | inconclusive: 96.3%
12 | Cc1ccc(/C=C2\NC(=S)NC2=O)cc1[N+](=O)[O-] | inconclusive: 104%
13 | COc1ccc(/C=N/Nc2nnc(Cc3ccccc3)c(=O)[nH]2)cc1OC | inconclusive: 113%
14 | COC(=O)[C@@H]1CC[C@H](C)[C@@H](c2ccc(C)cc2)N1C(=O)c1ccc(/C=N/OCC[C@@H]2C=C[C@H](OC(C)=O)[C@@H](COC(C)=O)O2)cc1 | inactive: 97.1%
15 | O=[N+]([O-])c1ccc(Oc2ccc(Oc3ccc(C(F)(F)F)cn3)cc2)nc1 | inconclusive: 108%
16 | Oc1ccccc1/C=N/Nc1nc2ccccc2o1 | inconclusive: 116%
17 | C[n+]1cccc2cccc([O-])c21 | inconclusive: 156%
18 | CCCc1c(O)nc(SC2CC(=O)N(c3ccc(OC)cc3)C2=O)[nH]c1=O (configuration not stated) | inconclusive: 113%
19 | CCSC1=C(C#N)C(c2ccc(C)o2)CC(=O)N1 (configuration not stated) | inconclusive: 42%
20 | CCn1c(CC(=O)Nc2ccccc2)n[nH]c1=S | inactive: 97.8%
21 | CCN1CCN(Cc2ccc(NC(=O)c3ccc(C)c(NC(=O)c4ccno4)c3)cc2C(F)(F)F)CC1 | inconclusive: 105%
22 | Cc1nc2ccc(C(=O)N3c4ccccc4CC3C)cc2s1 (configuration not stated) | inconclusive: 106%
23 | CCCCSc1nc(C)cc(NC(=S)Nc2ccc(OC)cc2)n1 | inactive: 100%

A few values from above.
Entry for O=C(O)COc1ccccc1/C=N/NC(=O)c1cc2ccccc2cc1O under binding response (% of control): inconclusive: 94.7%
Entry for Oc1ccccc1/C=N/Nc1nc2ccccc2o1 under binding response (% of control): inconclusive: 116%

(further entries)

Row | Structure (SMILES) | binding response (% of control)
24 | CCN(Cc1ccncc1)C(=S)Nc1ccc(Cl)cc1 | inconclusive: 105%
25 | N#Cc1nc(COc2ccc(-c3ccccc3)cc2)oc1NCCCN1CCOCC1 | inactive: 95.9%
26 | Cc1cc(C)c(C)c(S(=O)(=O)N2CCCCC2C(=O)O)c1C (configuration not stated) | inactive: 98.4%
27 | NC(=O)CC(NC(=O)Cc1ccc(Cl)cc1)c1ccc(NC2CCCC2)c([N+](=O)[O-])c1 (configuration not stated) | inconclusive: 102%
28 | C/[N+]([O-])=C\CC(=O)c1ccc(-c2ccccc2)cc1 | inconclusive: 95.6%
29 | O=C(O)CC1S/C(=N/N=C/c2ccccn2)NC1=O (configuration not stated) | inconclusive: 85.3%
30 | C#CC(C)(C)NC(=O)c1ccc(-c2ccccc2F)cc1 | inconclusive: 116%
31 | Cc1cccc(NCc2cc(Cl)cc(Cl)c2O)n1 | active: 278% [activator]
32 | Cc1nc(-c2ccc(S(=O)(=O)NCc3ccccn3)s2)cs1 | inconclusive: 99.7%
33 | CCC(C)c1ccc(NC(=O)CN(C)CC(=O)Nc2cccc(OC)c2)cc1 (configuration not stated) | inconclusive: 111%
34 | S=c1[nH]nc(C2CCCCC2)n1/N=C/c1ccccn1 | inconclusive: 109%
35 | O=C(NC1=NCCS1)c1cccc2ccccc12 | inactive: 103%
36 | O=C(CNC(=S)N(CCCN1CCOCC1)Cc1cccs1)N1CCCC1 | inconclusive: 120%
37 | O=C(Nc1ccc(F)cc1)c1cc2c(s1)CCCC2 | inconclusive: 133%
38 | CCn1cc(C(=O)O)c(=O)c2cc(F)c(N3CCN(C(=S)NC(=O)c4ccccc4F)CC3)cc21 | inconclusive: 104%
39 | Cc1cc(=O)[nH]c(N/N=C/c2cc(C)n(-c3ccccc3)c2C)n1 | inconclusive: 158%
40 | CC1=NN(C(C#N)c2c(C)nn(Cc3ccccc3)c2C)C(C)(C)C1 (configuration not stated) | inconclusive: 88.3%
41 | COC(=O)[C@H](C)NC(=O)NCc1ccccc1 | inconclusive: 105%
42 | CCOC(=O)C1C(c2ccc(Cl)cc2)NC(=S)NC1(O)C(F)(F)F (configuration not stated) | inactive: 103%
43 | O=C(CSc1ccc(C(F)(F)F)cn1)Nc1ccccc1 | inconclusive: -554%
44 | O=c1cc(-c2ccccc2)c2cc3c(cc2[nH]1)OCCO3 | inconclusive: 82.1%
45 | CCOC(=O)c1ccc(N=c2ssnc2Cl)cc1 | inconclusive: 85%
46 | COc1ccccc1N(CC(=O)NCC1CCCO1)C(=O)CNS(=O)(=O)c1ccccc1 (configuration not stated) | inconclusive: 102%

Row | Structure (SMILES) | binding response (% of control)
47 | Cc1sc2nc(SCC(=O)c3cc(C)n(CC4CCCO4)c3C)n(C(C)C)c(=O)c2c1C (configuration not stated) | inactive: 95.2%
48 | O=C(CN1C(=O)NC2(CCCC2)C1=O)NCC1CCCO1 (configuration not stated) | inconclusive: 125%
49 | COc1cc(C(=O)NCc2nnc(SCC(=O)Nc3cc(C)on3)o2)cc(OC)c1OC | inconclusive: 97.6%
50 | CNC(=O)Nc1cccc2cccnc12 | inconclusive: 130%
51 | CCOc1ccc(N(Cc2nnc3n2CCCCC3)C(=O)Nc2cccc(C)c2)cc1 | inconclusive: 102%
52 | Cc1n[nH]c(=S)n1/N=C/c1cccc(OCc2ccccc2)c1 | inconclusive: 109%
53 | CC(=O)Nc1ccc(NC(=O)c2cccc3c2-c2ccccc2C3=O)cc1 | inactive: 140%
54 | CC(=O)N1CCN(Cc2nc3cc(NC(=O)NC4CCCCC4)ccc3n2C)CC1 | inconclusive: 136%
55 | COc1cc2c(cc1OC)CN(CC(=O)Nc1ccc(Cl)c(S(=O)(=O)N(C)C)c1)CC2 | inactive: 99.3%
56 | O=C(NNC(=S)Nc1ccc(F)cc1)C1[C@H]2CCCC[C@@H]12 (some centres not stated) | inconclusive: 122%
57 | COc1cc([N+](=O)[O-])cc(/C=N/NC(=O)Cn2cncn2)c1O | inconclusive: 79%
58 | O=C(c1ccco1)N1CCC(n2nnc3ccccc32)CC1 | inactive: 101%
59 | O=S(=O)(Cc1ccccc1)Cc1cnc(Cl)s1 | inconclusive: 96.2%
60 | COCCn1c(N)c(Sc2ccccc2[N+](=O)[O-])c(=O)[nH]c1=O | inconclusive: 397%
61 | Cc1cc(C)nc(N2CCC(C(=O)NNC(=O)Cc3ccccc3)CC2)n1 | inconclusive: 93.9%
62 | COC(=O)c1ccccc1NC(=O)c1cnn2c(C)cc(C)nc12 | inactive: 101%
63 | O=c1ccc(N=Nc2ccccc2)ccc1O | inconclusive: -210%
64 | Cc1c(NC(=O)CSc2n[nH]c(=O)n2-c2ccccc2)c(=O)n(-c2ccccc2)n1C | inactive: 109%
65 | c1ccc(C2[C@H]3CN(CC4CCCCC4)[C@H](c4ccccc4)C34CC2(c2cccnc2)C4)cc1 (some centres not stated) | inconclusive: 80.1%
66 | O=C(Nc1ccc(CN2CCCCC2)cc1)Nc1ccc(Br)cc1Cl | inactive: 110%
67 | COc1cc(C2NC(=O)NC(C)=C2[N+](=O)[O-])cc(OC)c1OC (configuration not stated) | inconclusive: 90%
68 | COCCn1c(-c2ccccc2)nc2c(c(=O)c3ccccc3n2C)c1=O | inactive: 98.8%
69 | Cc1cc(NNC(=O)Nc2cccc(Cl)c2)nc2c1c(C)nn2C | inconclusive: 116%

Some of the entries so far, as a markdown table:

| Row | Structure (SMILES) | binding response (% of control) |
| --- | --- | --- |
| 66 | O=C(Nc1ccc(CN2CCCCC2)cc1)Nc1ccc(Br)cc1Cl | inactive: 110% |
| 67 | COc1cc(C2NC(=O)NC(C)=C2[N+](=O)[O-])cc(OC)c1OC (configuration not stated) | inconclusive: 90% |
| 68 | COCCn1c(-c2ccccc2)nc2c(c(=O)c3ccccc3n2C)c1=O | inactive: 98.8% |

Later entries.

Row | Structure (SMILES) | binding response (% of control)
70 | CCCn1nc(NC(=O)c2ccco2)c2cc3cc(C)ccc3nc21 | inconclusive: 93.6%
71 | COc1ccccc1Nc1nc(N)nc(CSC(=S)N2CCCCC2)n1 | inconclusive: 79.7%
72 | NC(=O)c1ccc(Oc2ncc(C(F)(F)F)cc2Cl)cc1 | inconclusive: 96.8%
73 | O=C(CN(Cc1ccccc1C(F)(F)F)C(=O)CNC(=O)c1ccco1)NC1CCCC1 | active: 171% [activator]
74 | CC(O)c1nc2ccccc2n1CC(=O)Nc1ccc2c(c1)OCCO2 (configuration not stated) | inconclusive: 49.5%
75 | COC(=O)c1cccc(Oc2cccc(C(F)(F)F)c2)n1 | inconclusive: 97.6%
76 | Cc1cccc(Nc2cnn(C34CC5CC(CC(CC(=O)O)(C5)C3)C4)c(=O)c2Cl)c1 | inactive: 101%
77 | CC(=O)Nc1ccc(C(C#N)c2ccccc2)cc1 (configuration not stated) | inactive: 106%
78 | CC1CC(O)C(C)CN1 (configuration not stated) | inconclusive: 72.9%
79 | Cc1ccc(NC(=O)c2cc(S(=O)(=O)N3CCOCC3)c(Br)s2)cc1 | inactive: 108%
80 | O=C1c2ccccc2C(=O)N1Cc1cnc(N2CCN(c3ccccc3)CC2)s1 | inconclusive: 110%
81 | N#CNC(=Nc1cccc(C(F)(F)F)c1)SCc1ccc(C(=O)O)cc1 | inconclusive: 93.2%
82 | CC(NC(=O)NNC(N)=S)(C(F)(F)F)C(F)(F)F | inconclusive: 113%
83 | Cc1ccc(C2C3C(=O)N(c4ccc(C)cc4)C(=O)C3N3CCCN23)cc1 (configuration not stated) | inconclusive: 86.6%
84 | Cc1cccc(OCCCC(=O)NCc2ccco2)c1 | inactive: 100%
85 | CC(=O)c1ccc(NS(=O)(=O)c2ccc(N)cc2)cc1 | inactive: 94.6%
86 | CC(=O)NC(Cc1ccccc1C)C(=O)NC1CCN(C(=O)c2cccc(C)c2)CC1 (configuration not stated) | inactive: 106%
87 | N#Cc1ccc(-c2ccc(OCC(=O)NCCCN3CCCC3=O)cc2)cc1 | inconclusive: 101%
88 | Cc1oc(-c2ccccc2Cl)nc1CSc1nc2c(c(=O)[nH]1)CCCC2 | inconclusive: 106%
89 | COC(=O)Cn1c2ccc(Cl)cc2c2nc(C)sc21 | inconclusive: 126%
90 | O=C(c1cc2ccccc2o1)N(C1CC1)C1(C(=O)Nc2ccccc2)CCCC1 | inconclusive: 89.7%
91 | CC(CNCC1CCCO1)COc1cccc2ccccc12 (configuration not stated) | inactive: 127%
92 | C=CCCN(C(CC(C)C)C(=O)OC)S(=O)(=O)c1cc(Br)ccc1Br (configuration not stated) | inconclusive: 52.8%
